Binding data for four substances are collected here from paper PMC6401487.

The chains behind the UniProt entries cited, without tags or fusion partners. Where a name states a change or a piece, a line headed by the entry shows the natural chain unless it says otherwise.
UniProt Q5JIK0: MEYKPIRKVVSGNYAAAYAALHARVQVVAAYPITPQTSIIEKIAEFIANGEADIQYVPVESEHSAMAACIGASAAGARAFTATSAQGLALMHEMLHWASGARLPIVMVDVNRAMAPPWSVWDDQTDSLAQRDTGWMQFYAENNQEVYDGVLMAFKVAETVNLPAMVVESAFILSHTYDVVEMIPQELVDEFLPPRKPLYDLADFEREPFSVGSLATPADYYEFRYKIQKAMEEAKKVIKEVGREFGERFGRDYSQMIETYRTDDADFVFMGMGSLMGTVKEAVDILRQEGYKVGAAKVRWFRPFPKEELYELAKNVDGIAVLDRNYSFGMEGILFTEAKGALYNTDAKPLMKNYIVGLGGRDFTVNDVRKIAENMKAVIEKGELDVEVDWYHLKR
UniProt Q5JHW0: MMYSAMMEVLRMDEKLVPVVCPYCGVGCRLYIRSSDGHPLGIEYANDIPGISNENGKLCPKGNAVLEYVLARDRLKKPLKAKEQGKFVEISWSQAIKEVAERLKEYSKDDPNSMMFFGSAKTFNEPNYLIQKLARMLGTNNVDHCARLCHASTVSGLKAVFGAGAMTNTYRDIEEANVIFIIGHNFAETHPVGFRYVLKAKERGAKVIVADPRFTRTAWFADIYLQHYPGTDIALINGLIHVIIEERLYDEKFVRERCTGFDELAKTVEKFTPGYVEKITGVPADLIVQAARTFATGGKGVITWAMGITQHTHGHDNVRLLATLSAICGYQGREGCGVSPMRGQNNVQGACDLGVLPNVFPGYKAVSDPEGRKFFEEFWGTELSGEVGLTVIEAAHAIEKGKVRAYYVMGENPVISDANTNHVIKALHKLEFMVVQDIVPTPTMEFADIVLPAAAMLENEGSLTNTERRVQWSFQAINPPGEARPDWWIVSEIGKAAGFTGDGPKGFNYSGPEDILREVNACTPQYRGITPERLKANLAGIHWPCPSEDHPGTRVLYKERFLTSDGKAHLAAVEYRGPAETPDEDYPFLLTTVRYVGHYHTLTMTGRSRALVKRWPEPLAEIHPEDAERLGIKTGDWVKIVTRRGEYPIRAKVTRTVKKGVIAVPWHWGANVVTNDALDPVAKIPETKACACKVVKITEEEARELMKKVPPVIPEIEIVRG
UniProt Q5JIJ6: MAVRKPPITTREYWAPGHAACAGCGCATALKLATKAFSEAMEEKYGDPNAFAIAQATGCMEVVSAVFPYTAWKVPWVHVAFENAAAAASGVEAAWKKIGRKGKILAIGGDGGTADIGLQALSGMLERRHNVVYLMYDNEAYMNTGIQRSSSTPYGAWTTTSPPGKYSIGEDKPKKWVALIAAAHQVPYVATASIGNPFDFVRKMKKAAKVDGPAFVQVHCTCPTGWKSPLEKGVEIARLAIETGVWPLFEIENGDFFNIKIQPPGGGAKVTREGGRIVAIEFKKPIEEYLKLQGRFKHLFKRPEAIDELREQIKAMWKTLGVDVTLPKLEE
UniProt Q5JE61: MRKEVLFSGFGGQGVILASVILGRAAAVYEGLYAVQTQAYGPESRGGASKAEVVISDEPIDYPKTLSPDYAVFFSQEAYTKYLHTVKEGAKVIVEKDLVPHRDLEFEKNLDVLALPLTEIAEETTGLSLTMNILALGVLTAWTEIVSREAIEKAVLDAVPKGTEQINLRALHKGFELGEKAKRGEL

No constants are given. Whether binding was seen depends on the method and setting. In cells and extracts the contact can be indirect. These calls come from enrichment with a bait or labelling near it, and not all partners need be listed. For some assays here: No binding means not detected with the bait. Where a sequence is shown, tags or fusion partners need not be part of it.

Assay [1] concerns the target T1, Ferredoxin 1 (Fd-1), encoded by TK1694, with C-terminal HA-His6 extension (Thermococcus kodakarensis) (UniProt Q977X3).
T1 sequence: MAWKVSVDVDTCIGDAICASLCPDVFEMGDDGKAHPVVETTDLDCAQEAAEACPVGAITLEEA
The assay is described as follows: affinity purification with mass spectrometry; C-terminally HA-His6-tagged Fd made from its own genomic locus; clarified lysates of cultures grown with S0 or without S0 (pyruvate); Ni2+-charged chelating column at 4 °C in 25 mM Tris-HCl pH 8.0, 500 mM NaCl, 10% glycerol; linear imidazole gradient; pooled Fd-containing fractions analysed by MuDPIT; proteins also found in equivalent fractions of parental strain TS559 subtracted.

Assay [2] concerns the target T2, Ferredoxin 3 (Fd-3), encoded by TK2012, with C-terminal HA-His6 extension (Thermococcus kodakarensis) (UniProt Q5JDE8).
T2 sequence: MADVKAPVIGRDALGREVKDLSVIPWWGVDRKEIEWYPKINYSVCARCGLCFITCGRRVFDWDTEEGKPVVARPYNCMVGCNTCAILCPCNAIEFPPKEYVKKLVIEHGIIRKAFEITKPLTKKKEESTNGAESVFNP
The description is as above.

For “2-Oxoisovalerate:ferredoxin oxidoreductase, α subunit (from UniProt Q5JIK0)”, the binding entry in assay [1] is “binds”. “Formate dehydrogenase, α subunit (from UniProt Q5JHW0)”: in assay [2], the binding result is “binds”.

Regarding “Pyruvate:ferredoxin oxidoreductase, β subunit (from UniProt Q5JIJ6)”, the binding entry in assay [1] and in assay [2] was “binds” throughout.

As for “Oxoacid:ferredoxin oxidoreductases, γ subunit (from UniProt Q5JE61)”, the binding result in assay [2] was “no binding”.
